Data: the supplement of paper PMC10849652
The list shows a part of the results.

Amino acid sequences for entries named in this document (tags omitted). A change or cut given only in a name is not applied to a line headed by its entry.
UniProt Q70CQ2: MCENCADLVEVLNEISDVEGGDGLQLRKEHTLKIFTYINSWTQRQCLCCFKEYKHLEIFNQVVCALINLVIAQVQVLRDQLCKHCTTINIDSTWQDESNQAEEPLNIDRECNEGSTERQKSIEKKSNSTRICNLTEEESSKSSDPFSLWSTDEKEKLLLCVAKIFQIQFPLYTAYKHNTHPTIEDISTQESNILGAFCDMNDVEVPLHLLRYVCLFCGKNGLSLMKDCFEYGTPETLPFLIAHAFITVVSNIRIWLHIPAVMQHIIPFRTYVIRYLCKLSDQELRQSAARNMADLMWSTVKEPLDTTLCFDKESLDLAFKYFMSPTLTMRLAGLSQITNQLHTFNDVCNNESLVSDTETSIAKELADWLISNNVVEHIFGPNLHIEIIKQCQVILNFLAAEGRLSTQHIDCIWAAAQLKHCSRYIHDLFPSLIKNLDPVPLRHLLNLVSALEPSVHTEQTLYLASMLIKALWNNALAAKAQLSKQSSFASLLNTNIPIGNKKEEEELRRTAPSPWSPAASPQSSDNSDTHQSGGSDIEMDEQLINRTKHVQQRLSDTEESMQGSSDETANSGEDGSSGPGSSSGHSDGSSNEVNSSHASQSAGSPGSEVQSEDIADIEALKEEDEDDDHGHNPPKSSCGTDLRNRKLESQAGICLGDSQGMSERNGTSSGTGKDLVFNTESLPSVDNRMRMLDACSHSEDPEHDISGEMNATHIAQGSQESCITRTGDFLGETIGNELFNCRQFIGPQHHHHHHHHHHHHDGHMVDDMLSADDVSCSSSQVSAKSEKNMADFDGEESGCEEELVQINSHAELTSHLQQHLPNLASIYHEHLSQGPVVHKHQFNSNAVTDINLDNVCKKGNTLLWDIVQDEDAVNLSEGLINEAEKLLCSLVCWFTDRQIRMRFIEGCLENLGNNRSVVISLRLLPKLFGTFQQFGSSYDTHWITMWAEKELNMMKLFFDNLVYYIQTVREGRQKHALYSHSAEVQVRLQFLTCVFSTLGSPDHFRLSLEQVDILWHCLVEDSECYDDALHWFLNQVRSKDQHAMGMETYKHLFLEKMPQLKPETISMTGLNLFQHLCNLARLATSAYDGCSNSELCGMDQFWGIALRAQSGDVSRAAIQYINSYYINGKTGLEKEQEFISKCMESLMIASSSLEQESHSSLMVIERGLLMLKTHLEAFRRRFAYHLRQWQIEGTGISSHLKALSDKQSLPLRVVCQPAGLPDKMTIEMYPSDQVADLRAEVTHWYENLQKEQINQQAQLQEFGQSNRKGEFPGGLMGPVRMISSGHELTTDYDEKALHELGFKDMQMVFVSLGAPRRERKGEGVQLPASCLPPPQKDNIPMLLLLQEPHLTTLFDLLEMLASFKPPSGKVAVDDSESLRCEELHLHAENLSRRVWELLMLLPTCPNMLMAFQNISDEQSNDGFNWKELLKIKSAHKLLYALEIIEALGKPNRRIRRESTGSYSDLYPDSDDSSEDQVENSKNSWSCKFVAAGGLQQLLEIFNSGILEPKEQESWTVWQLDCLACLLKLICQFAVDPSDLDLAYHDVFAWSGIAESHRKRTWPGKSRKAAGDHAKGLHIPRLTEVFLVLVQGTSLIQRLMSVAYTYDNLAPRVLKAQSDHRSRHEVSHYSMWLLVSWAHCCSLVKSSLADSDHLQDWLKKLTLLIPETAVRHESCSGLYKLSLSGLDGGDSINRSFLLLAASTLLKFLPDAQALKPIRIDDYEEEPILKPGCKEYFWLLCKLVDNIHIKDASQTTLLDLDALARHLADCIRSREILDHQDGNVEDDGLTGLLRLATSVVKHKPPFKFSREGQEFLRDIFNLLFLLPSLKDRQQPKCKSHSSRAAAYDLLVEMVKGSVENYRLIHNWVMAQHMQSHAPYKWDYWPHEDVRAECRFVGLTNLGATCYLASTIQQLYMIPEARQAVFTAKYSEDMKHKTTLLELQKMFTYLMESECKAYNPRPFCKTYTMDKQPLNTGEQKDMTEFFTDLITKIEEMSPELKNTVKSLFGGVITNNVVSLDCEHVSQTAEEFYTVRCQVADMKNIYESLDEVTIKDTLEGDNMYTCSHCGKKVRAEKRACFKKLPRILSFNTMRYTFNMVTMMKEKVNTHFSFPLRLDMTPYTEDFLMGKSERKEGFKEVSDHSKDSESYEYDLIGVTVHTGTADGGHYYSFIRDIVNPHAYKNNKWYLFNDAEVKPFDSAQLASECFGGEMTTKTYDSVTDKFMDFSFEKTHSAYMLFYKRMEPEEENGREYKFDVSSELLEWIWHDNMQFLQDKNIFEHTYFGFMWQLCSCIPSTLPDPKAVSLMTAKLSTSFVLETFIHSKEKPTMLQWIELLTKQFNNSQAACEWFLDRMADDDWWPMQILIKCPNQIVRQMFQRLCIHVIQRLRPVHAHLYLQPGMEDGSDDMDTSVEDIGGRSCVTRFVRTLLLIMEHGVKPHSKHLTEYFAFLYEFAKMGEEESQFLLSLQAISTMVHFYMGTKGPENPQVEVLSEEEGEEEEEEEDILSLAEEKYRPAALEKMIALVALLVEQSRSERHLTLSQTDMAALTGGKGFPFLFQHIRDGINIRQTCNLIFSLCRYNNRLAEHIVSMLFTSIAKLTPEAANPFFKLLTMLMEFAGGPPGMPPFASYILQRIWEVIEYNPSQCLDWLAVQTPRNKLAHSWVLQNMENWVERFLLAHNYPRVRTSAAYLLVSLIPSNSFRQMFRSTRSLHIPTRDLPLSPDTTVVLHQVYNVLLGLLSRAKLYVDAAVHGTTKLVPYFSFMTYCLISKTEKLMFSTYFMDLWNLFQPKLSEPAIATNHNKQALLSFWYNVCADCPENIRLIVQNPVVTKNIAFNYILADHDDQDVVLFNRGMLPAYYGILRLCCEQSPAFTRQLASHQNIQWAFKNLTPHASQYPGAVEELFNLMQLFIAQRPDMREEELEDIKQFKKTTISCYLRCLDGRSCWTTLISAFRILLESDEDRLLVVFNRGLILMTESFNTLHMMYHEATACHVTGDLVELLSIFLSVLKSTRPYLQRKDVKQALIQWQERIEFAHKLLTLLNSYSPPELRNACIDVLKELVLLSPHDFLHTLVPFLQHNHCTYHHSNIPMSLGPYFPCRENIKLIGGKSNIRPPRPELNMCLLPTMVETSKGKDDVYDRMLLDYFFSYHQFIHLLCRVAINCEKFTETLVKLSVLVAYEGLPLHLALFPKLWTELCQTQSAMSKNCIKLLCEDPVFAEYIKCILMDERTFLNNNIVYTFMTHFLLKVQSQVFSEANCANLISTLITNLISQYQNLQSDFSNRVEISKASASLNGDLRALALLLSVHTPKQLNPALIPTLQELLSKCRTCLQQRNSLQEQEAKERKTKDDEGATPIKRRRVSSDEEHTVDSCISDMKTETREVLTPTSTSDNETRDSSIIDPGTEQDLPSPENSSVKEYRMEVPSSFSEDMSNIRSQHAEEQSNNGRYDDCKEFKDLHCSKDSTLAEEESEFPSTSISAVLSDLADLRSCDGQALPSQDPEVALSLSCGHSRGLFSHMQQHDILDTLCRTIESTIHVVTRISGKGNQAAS
UniProt C9J7I0: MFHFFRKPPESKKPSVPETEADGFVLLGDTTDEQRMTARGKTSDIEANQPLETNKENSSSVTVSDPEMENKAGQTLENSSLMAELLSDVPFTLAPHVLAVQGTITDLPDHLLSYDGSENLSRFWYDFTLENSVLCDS
UniProt Q8TCY9: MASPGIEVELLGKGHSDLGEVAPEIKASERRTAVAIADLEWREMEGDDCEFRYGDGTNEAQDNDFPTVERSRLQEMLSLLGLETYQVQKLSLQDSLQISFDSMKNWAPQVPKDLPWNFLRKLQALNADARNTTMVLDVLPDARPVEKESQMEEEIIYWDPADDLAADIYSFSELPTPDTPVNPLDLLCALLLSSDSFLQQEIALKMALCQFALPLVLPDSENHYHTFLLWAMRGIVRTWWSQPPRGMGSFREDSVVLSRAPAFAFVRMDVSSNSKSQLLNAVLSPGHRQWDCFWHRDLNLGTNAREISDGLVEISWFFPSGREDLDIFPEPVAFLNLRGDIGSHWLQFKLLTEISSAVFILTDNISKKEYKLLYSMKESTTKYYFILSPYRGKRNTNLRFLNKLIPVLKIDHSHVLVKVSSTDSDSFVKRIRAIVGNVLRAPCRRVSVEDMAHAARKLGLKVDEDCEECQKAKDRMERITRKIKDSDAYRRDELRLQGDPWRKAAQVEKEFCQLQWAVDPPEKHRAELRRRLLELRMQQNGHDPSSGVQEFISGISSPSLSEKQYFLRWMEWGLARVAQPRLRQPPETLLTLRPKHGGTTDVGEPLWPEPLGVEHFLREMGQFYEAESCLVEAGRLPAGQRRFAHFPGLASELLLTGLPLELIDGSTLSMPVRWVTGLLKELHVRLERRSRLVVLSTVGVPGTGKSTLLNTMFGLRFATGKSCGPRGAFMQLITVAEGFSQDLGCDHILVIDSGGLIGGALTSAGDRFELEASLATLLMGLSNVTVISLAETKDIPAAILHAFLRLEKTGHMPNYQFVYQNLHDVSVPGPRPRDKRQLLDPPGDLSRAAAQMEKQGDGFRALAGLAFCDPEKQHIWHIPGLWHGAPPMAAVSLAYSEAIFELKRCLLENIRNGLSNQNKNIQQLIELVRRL
UniProt Q8IZJ1, whole entry, looked up: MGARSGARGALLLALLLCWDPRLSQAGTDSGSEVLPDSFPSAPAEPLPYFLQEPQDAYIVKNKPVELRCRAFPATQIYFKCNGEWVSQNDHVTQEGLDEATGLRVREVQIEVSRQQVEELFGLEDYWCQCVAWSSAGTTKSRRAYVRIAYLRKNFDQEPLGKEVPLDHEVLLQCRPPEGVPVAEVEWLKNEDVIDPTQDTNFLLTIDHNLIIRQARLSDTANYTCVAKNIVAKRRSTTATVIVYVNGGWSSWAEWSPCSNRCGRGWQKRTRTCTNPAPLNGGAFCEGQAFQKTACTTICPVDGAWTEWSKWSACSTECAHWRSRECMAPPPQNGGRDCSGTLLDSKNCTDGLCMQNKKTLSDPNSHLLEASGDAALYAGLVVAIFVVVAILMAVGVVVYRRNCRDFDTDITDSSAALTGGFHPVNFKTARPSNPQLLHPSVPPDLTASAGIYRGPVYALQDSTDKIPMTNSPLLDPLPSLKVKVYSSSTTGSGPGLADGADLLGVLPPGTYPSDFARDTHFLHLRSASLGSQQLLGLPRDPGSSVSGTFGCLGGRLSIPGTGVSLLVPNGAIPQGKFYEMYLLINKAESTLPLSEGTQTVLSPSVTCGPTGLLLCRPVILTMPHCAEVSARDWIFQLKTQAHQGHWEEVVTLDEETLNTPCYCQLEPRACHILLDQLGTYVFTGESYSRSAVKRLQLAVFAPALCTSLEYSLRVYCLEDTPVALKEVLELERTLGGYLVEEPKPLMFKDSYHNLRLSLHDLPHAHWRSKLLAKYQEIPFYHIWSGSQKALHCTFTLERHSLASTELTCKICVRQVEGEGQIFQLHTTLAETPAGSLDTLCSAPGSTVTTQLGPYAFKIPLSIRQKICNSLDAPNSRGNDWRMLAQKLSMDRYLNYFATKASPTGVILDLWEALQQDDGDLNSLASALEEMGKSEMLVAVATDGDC
UniProt Q9BTM9: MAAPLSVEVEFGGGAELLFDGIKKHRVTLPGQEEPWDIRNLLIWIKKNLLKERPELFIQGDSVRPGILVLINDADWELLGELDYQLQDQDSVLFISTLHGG
UniProt Q14119: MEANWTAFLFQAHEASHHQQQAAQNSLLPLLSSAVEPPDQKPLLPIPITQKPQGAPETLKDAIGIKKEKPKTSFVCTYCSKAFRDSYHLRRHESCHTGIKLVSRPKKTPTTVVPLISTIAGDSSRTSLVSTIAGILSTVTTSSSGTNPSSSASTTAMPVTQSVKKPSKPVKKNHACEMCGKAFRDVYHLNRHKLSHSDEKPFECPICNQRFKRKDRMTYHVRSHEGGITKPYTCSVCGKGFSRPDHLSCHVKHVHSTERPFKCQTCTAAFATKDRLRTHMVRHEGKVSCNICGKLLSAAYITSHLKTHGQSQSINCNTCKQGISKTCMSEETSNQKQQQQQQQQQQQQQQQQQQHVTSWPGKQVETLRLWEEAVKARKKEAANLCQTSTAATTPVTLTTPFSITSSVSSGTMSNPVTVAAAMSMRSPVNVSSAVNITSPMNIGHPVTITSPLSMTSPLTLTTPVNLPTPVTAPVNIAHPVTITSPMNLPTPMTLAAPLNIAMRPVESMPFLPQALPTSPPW
UniProt P40337, whole entry, looked up: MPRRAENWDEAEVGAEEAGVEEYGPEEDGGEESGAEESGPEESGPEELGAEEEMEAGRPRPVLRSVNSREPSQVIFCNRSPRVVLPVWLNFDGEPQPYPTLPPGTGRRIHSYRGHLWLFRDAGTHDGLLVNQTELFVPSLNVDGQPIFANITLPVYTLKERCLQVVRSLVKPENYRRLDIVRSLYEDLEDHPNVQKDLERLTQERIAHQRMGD

Columns and labels:
Assay in all cases: log2 fold change, soluble protein after heating vs DMSO (PISA); higher = thermal stabilisation; K562 lysate, 10 uM; active = over 0.2 and 3.5 SD of the protein, either way, in both replicates (recomputed)
nilotinib = compound: Cc1cn(-c2cc(NC(=O)c3ccc(C)c(Nc4nccc(-c5cccnc5)n4)c3)cc(C(F)(F)F)c2)cn1 [nilotinib]
In short: (§1)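 Following dounce homogenisation of K562 pellets in PBS pH 7.4 with 1 mM MgCl2, crude extract at 1 mg/mL protein was incubated for 30 min with 10 μM compound. Aliquots were then heated for 3 min over 48°C-58°C and pooled, NP-40 was added to 0.5% at 4°C, and soluble protein was recovered as the supernatant at 21,000xg for 90 min. Channel-sum-equalised TMTpro 16plex LC-MS/MS quantified this protein. Each value, from duplicates, is a log-two fold change in thermal stability relative to solvent controls.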

[1] = compound: Cc1nc(Nc2n[nH]c3c2CN(C(=O)N[C@H](CN(C)C)c2ccccc2)C3(C)C)c2sccc2n1
In short: as §1

dasatinib = compound: Cc1nc(Nc2ncc(C(=O)Nc3c(C)cccc3Cl)s2)cc(N2CCN(CCO)CC2)n1 [dasatinib]
In short: as §1

[2] = compound: Cc1ncc(-c2ccnc(Nc3ccc(S(C)(=O)=O)cc3)n2)n1C(C)C
In short: as §1

[3] = compound: Cn1cc(-c2ccc3c(c2)CCN3C(=O)Cc2cccc(C(F)(F)F)c2)c2c(N)ncnc21
In short: as §1

quisinostat = compound: Cn1cc(CNCC2CCN(c3ncc(C(=O)NO)cn3)CC2)c2ccccc21 [quisinostat]
In short: as §1

tipifarnib = compound: Cn1cncc1[C@@](N)(c1ccc(Cl)cc1)c1ccc2c(c1)c(-c1cccc(Cl)c1)cc(=O)n2C [tipifarnib]
In short: as §1

[4] = compound: NC(=O)Nc1cc(-c2cccc(F)c2)sc1C(=O)N[C@H]1CCCNC1
In short: as §1

[5] = compound: NC(=O)c1cnc(N[C@@H]2CCCC[C@@H]2N)nc1Nc1cccc(-n2nccn2)c1
In short: as §1

[6] = compound: NC1(c2ccc(-c3nc4ccn5c(=O)[nH]nc5c4cc3-c3ccccc3)cc2)CCC1
In short: as §1

[7] = compound: NCC(=O)Nc1ccc(-n2nc(C(F)(F)F)cc2-c2ccc3c(ccc4ccccc43)c2)cc1
In short: as §1

vorinostat = compound: O=C(CCCCCCC(=O)Nc1ccccc1)NO [vorinostat]
In short: as §1

silmitasertib = compound: O=C(O)c1ccc2c(c1)nc(Nc1cccc(Cl)c1)c1ccncc12 [silmitasertib]
In short: as §1

[8] = compound: O=C1NC(=O)C(c2cnc3ccccn23)=C1c1cn2c3c(cc(F)cc13)CN(C(=O)N1CCCCC1)CC2
In short: as §1

entospletinib = compound: c1cn2cc(-c3ccc4cn[nH]c4c3)nc(Nc3ccc(N4CCOCC4)cc3)c2n1 [entospletinib]
In short: as §1

Measured: log2 fold change

UCKL1 (UniProt Q9NWZ5)
inactive: nilotinib -0.024 | [1] 0.007 | dasatinib 0.008 | [2] 0.022 | [3] -0.002 | quisinostat -0.05 | tipifarnib -0.011 | [4] 0.018 | [5] -0.003 | [6] 0.011 | [7] -0.024 | vorinostat -0.193 | silmitasertib -0.007 | [8] 0.023 | entospletinib 0.018

USP38 (UniProt Q8NB14)
inactive: nilotinib -0.016 | [1] -0.124 | dasatinib -0.046 | [2] -0.015 | [3] 0.047 | quisinostat -0.055 | tipifarnib 0.024 | [4] 0.065 | [5] 0.052 | [7] 0.067 | [8] 0.079 | entospletinib -0.01

USP34 (UniProt Q70CQ2)
inactive: nilotinib -0.018 | [1] -0.002 | dasatinib -0.042 | [2] -0.018 | [3] 0.023 | quisinostat -0.041 | tipifarnib 0.021 | [4] 0.074 | [5] 0.018 | [6] 0 | [7] 0.005 | silmitasertib 0.05 | [8] -0.012 | entospletinib -0.005
active: vorinostat -0.208

URB2 (UniProt Q14146)
inactive: nilotinib -0.049 | [1] -0.1 | dasatinib 0.055 | [2] -0.023 | [3] 0.001 | quisinostat -0.024 | tipifarnib 0.12 | [4] 0.079 | [5] 0.037 | [7] 0.094 | [8] 0.044 | entospletinib -0.008

UMAD1 (UniProt C9J7I0)
inactive: nilotinib -0.076 | [1] -0.011 | dasatinib 0.043 | [2] 0.471 | [3] -0.08 | quisinostat 0.036 | tipifarnib 0.08 | [4] -0.037 | [5] -0.199 | [8] -0.018

URGCP (UniProt Q8TCY9)
inactive: nilotinib 0.028 | [1] 0.079 | dasatinib -0.204 | [2] -0.04 | [3] -0.145 | tipifarnib -0.008 | [7] 0

USP6NL isoform 2 (UniProt Q92738)
inactive: nilotinib -0.022 | [1] 0 | [2] -0.065 | quisinostat 0.12 | tipifarnib -0.165 | [4] 0.018 | [5] 0.033 | [7] -0.109 | [8] -0.137 | entospletinib -0.114

VCX3B (UniProt Q9H321)
inactive: nilotinib -0.009 | [1] 0.06 | dasatinib -0.1 | [2] 0.002 | [3] -0.033 | quisinostat 0.048 | tipifarnib 0.092 | [4] -0.044 | [5] -0.011 | [6] 0.007 | vorinostat 0.12 | silmitasertib 0.041 | [8] -0.018 | entospletinib 0.015

2 entries drawn at random from those above:
URB2 (UniProt Q14146)
inactive: nilotinib -0.049 | [1] -0.1 | dasatinib 0.055 | [2] -0.023 | [3] 0.001 | quisinostat -0.024 | tipifarnib 0.12 | [4] 0.079 | [5] 0.037 | [7] 0.094 | [8] 0.044 | entospletinib -0.008

USP6NL isoform 2 (UniProt Q92738)
inactive: nilotinib -0.022 | [1] 0 | [2] -0.065 | quisinostat 0.12 | tipifarnib -0.165 | [4] 0.018 | [5] 0.033 | [7] -0.109 | [8] -0.137 | entospletinib -0.114

Next part:

UNC5B (UniProt Q8IZJ1)
inactive: nilotinib 0.267 | [1] -0.092 | dasatinib -0.04 | [2] -0.108 | [3] 0.072 | quisinostat -0.056 | tipifarnib -0.097 | [4] -0.004 | [5] 0.097 | [6] -0.012 | [7] 0.001 | vorinostat 0.023 | silmitasertib -0.093 | [8] -0.062 | entospletinib 0.052

URM1 isoform 2 (UniProt Q9BTM9)
inactive: nilotinib 0.03 | [1] 0.037 | dasatinib -0.026 | [2] 0.15 | [3] 0.044 | tipifarnib -0.044 | [5] 0.028 | [6] -0.066 | [7] -0.1 | vorinostat -0.078 | silmitasertib 0.046 | entospletinib -0.034

UCP2 (UniProt P55851)
inactive: nilotinib 0.144 | [1] -0.186 | [2] -0.137 | quisinostat -0.022 | tipifarnib 0.142 | [4] 0.059 | [7] -0.12 | [8] 0.035

USP24 (UniProt Q9UPU5)
inactive: nilotinib -0.024 | [1] 0.007 | dasatinib -0.046 | [2] 0 | [3] 0.008 | quisinostat -0.004 | tipifarnib 0.004 | [4] 0.028 | [5] 0.006 | [6] -0.003 | [7] 0.009 | vorinostat -0.077 | silmitasertib 0.044 | [8] -0.028 | entospletinib 0.008

USP42 (UniProt Q9H9J4)
inactive: nilotinib 0.04 | [1] 0.118 | [2] -0.04 | quisinostat -0.191 | tipifarnib 0 | [4] -0.013 | [5] -0.195 | [8] -0.053 | entospletinib -0.116

VEZF1 (UniProt Q14119)
inactive: nilotinib 0.018 | [1] -0.124 | dasatinib 0.033 | [2] -0.027 | [3] 0.039 | quisinostat -0.346 | tipifarnib -0.043 | [4] 0.009 | [5] 0.012 | [6] 0.102 | [7] -0.029 | vorinostat -0.127 | silmitasertib 0.137 | [8] -0.076 | entospletinib -0.014

VHL (UniProt P40337)
inactive: nilotinib -0.01 | [1] 0.04 | dasatinib 0 | [2] -0.056 | [3] 0.079 | quisinostat -0.056 | tipifarnib 0.022 | [4] 0.077 | [6] 0.04 | [7] 0.015 | vorinostat -0.289 | silmitasertib -0.038 | [8] -0.011 | entospletinib -0.001

USP40 isoform 3 (UniProt Q9NVE5)
inactive: nilotinib 0.041 | [1] -0.059 | dasatinib -0.121 | [2] 0.019 | [3] 0.003 | quisinostat -0.074 | tipifarnib -0.084 | [4] 0.063 | [6] 0.247 | vorinostat 0.062 | silmitasertib -0.06 | [8] -0.053
